Experimental findings from publication PMC10619556, “Comprehensive Evaluation System for Post-Metabolic Activity of Potential Thyroid-Disrupting Chemicals” (Journal of Microbiology and Biotechnology, 2023) are described below.

For this assay, the system named is thyroid hormone receptor (THR). As to the kind of experiment: hTRE_HeLa THR transcriptional activity (nano luciferase reporter) assay with rat liver S9 mixtures. In kind it is cell-based, human. To be noted: hTRE_HeLa cells; phase I+II group; 10 uM T3-biotransformant; greatest activity; mean ± SD. The method, then: The hTRE_HeLa cell line, obtained from the MFDS, was used to detect thyroid hormone receptor (THR) agonists through transcriptional activation analysis, utilizing a stably modified thyroid receptor-reactive human cervical cancer cell line along with one plasmid from a nano luciferase reporter. For cell line maintenance, minimum essential media (MEM, Gibco, USA) supplemented with 10% FBS, 1% penicillin/streptomycin (P/S), and 1 ml Hygromycin B (InvivoGen, USA) was used. The hTRE_Hela cell line was conditioned and treated in test medium containing Phenol red free of MEM (Gibco) supplemented with 10% charcoal-stripped FBS (CS-FBS), 1% P/S, and 1 mL Hygromycin B. hTRE_HeLa cells were maintained in 37°C and 5% CO2 incubator. hTRE_HeLa cells were seeded with 5 × 10^3 cells per well in the 96-well plate for 24 h and treated with EDCs and S9 mixtures for 48 h. […]
In the hTRE_Hela THR transcriptional activity assay, 100 nM of T3 was used as a positive control (PC). […] After a 10 min incubation, the luciferase activity was measured using a luminescence reader (Glomax Discover, Promega). […] The % to PC value of EDCs was calculated to (EDCs – VCtest) / (PC – VCcontrol). […] If the EDC was greater than or equal to 10% of PC, the EDC was determined to be a THR agonist-positive chemical. […]

Consider `N[C@@H](Cc1cc(I)c(Oc2ccc(O)c(I)c2)c(I)c1)C(=O)O` [T3, 3,3’,5-triiodo-L-thyronine], for which the “THR transcriptional activity compared to the activity of 100 nM T3” value stood at 309.1 ± 17.3%.
